Test results taken from the supplement of paper PMC5355238.
Where “and” joins values, the source holds several entries; their conditions need not be identical. Equal values may be shown once. Where a name gives a salt, the structure may show the parent alone. This is one part of the list. Most values lie at the level of the controls, where differences are scatter.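 Using flow cytometry, the assay measures the median γH2AX antibody signal in S-phase Reh cells (a human leukemia line). Each score is the number of standard deviations from the median difference of paired plate sets. Candidate hits scored above 2.5; compounds scoring below -2 lowered MK1775-induced damage.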

tested on: Reh; test: Z' of S-phase gammaH2AX difference (drug + MK1775 minus drug alone) (Z-score); higher = stronger synergistic S-phase DNA damage with MK1775; conditions: MK1775 concentration 400 nM; first compound 10 µM; 4 h

SMILES	Z' of S-phase gammaH2AX difference (Z-score)
N#Cc1c(-c2ccccc2)no[n+]1[O-] [4-Phenyl-3-furoxancarbonitrile] + C=CCn1c(=O)c2cnc(Nc3ccc(N4CCN(C)CC4)cc3)nc2n1-c1cccc(C(C)(C)O)n1 [MK1775]	inactive: -0.141
CCn1c(=O)c2[nH]c(-c3ccccc3)nc2n(CC)c1=O [1,3-Diethyl-8-phenylxanthine] + C=CCn1c(=O)c2cnc(Nc3ccc(N4CCN(C)CC4)cc3)nc2n1-c1cccc(C(C)(C)O)n1 [MK1775]	inactive: 0.0134
NCCC[C@](N)(C(=O)O)C(F)F (racemic) [DL-alpha-Difluoromethylornithine hydrochloride] + C=CCn1c(=O)c2cnc(Nc3ccc(N4CCN(C)CC4)cc3)nc2n1-c1cccc(C(C)(C)O)n1 [MK1775]	inactive: 1.11
N#Cc1ccc(C(c2ccc(C#N)cc2)n2cncn2)cc1 [Letrozole] + C=CCn1c(=O)c2cnc(Nc3ccc(N4CCN(C)CC4)cc3)nc2n1-c1cccc(C(C)(C)O)n1 [MK1775]	inactive: 0.104
CN1CCN(C2=Nc3ccccc3Oc3ccc(Cl)cc32)CC1 [Loxapine succinate] + C=CCn1c(=O)c2cnc(Nc3ccc(N4CCN(C)CC4)cc3)nc2n1-c1cccc(C(C)(C)O)n1 [MK1775]	inactive: -0.403
C[N+]1(C)CCC(OC(=O)C(c2ccccc2)c2ccccc2)CC1 [4-DAMP methiodide] + C=CCn1c(=O)c2cnc(Nc3ccc(N4CCN(C)CC4)cc3)nc2n1-c1cccc(C(C)(C)O)n1 [MK1775]	inactive: 0.051
CCN(CC)CCOC(=O)C1(C2CCCCC2)CCCCC1 [Dicyclomine hydrochloride] + C=CCn1c(=O)c2cnc(Nc3ccc(N4CCN(C)CC4)cc3)nc2n1-c1cccc(C(C)(C)O)n1 [MK1775]	inactive: 1.02
CC(N/C(=N\C#N)Nc1ccncc1)C(C)(C)C (configuration not stated) [Pinacidil] + C=CCn1c(=O)c2cnc(Nc3ccc(N4CCN(C)CC4)cc3)nc2n1-c1cccc(C(C)(C)O)n1 [MK1775]	inactive: -0.0825
CN(C)CCCN1c2ccccc2Sc2ccc(C(F)(F)F)cc21 [Triflupromazine hydrochloride] + C=CCn1c(=O)c2cnc(Nc3ccc(N4CCN(C)CC4)cc3)nc2n1-c1cccc(C(C)(C)O)n1 [MK1775]	inactive: 1.25
COc1ccc2c(c1)CCC1C2CCC2(C)C(NCCCCCCN3C(=O)C=CC3=O)CCC12 (configuration not stated) + C=CCn1c(=O)c2cnc(Nc3ccc(N4CCN(C)CC4)cc3)nc2n1-c1cccc(C(C)(C)O)n1 [MK1775]	inactive: 0.669 and inactive: -0.906
COC(=O)C1=C(C)NC(C)=C([N+](=O)[O-])C1c1ccccc1C(F)(F)F (configuration not stated) + C=CCn1c(=O)c2cnc(Nc3ccc(N4CCN(C)CC4)cc3)nc2n1-c1cccc(C(C)(C)O)n1 [MK1775]	inactive: 0.281
COc1cc(C(=O)OCCCN2CCCN(CCCOC(=O)c3cc(OC)c(OC)c(OC)c3)CC2)cc(OC)c1OC [Dilazep hydrochloride] + C=CCn1c(=O)c2cnc(Nc3ccc(N4CCN(C)CC4)cc3)nc2n1-c1cccc(C(C)(C)O)n1 [MK1775]	inactive: -0.279
COc1ccc(-c2ccc3c(N4CCOC[C@@H]4C)nc(N4CCOC[C@@H]4C)nc3n2)cc1CO + C=CCn1c(=O)c2cnc(Nc3ccc(N4CCN(C)CC4)cc3)nc2n1-c1cccc(C(C)(C)O)n1 [MK1775]	inactive: -0.353
N=C(NC(=O)c1nc(Cl)c(N)nc1N)Nc1ccccc1 [Phenamil methanesulfonate] + C=CCn1c(=O)c2cnc(Nc3ccc(N4CCN(C)CC4)cc3)nc2n1-c1cccc(C(C)(C)O)n1 [MK1775]	inactive: 0.767
C#CC(N)CCC(=O)O (configuration not stated) [gamma-Acetylinic GABA] + C=CCn1c(=O)c2cnc(Nc3ccc(N4CCN(C)CC4)cc3)nc2n1-c1cccc(C(C)(C)O)n1 [MK1775]	inactive: -0.658
Nc1cc(Cl)c(NC2=NCCN2)c(Cl)c1 [p-Aminoclonidine hydrochloride] + C=CCn1c(=O)c2cnc(Nc3ccc(N4CCN(C)CC4)cc3)nc2n1-c1cccc(C(C)(C)O)n1 [MK1775]	inactive: 0.0267
NO [Hydroxylamine hydrochloride] + C=CCn1c(=O)c2cnc(Nc3ccc(N4CCN(C)CC4)cc3)nc2n1-c1cccc(C(C)(C)O)n1 [MK1775]	inactive: -1.06
O=c1[nH]c2ccccc2n1CCCN1CCN(C(c2ccccc2)c2ccccc2)CC1 [Oxatomide] + C=CCn1c(=O)c2cnc(Nc3ccc(N4CCN(C)CC4)cc3)nc2n1-c1cccc(C(C)(C)O)n1 [MK1775]	inactive: -0.252
Nc1nc(Cl)nc2c1ncn2[C@@H]1O[C@H](CO)[C@@H](O)[C@H]1O [2-Chloroadenosine] + C=CCn1c(=O)c2cnc(Nc3ccc(N4CCN(C)CC4)cc3)nc2n1-c1cccc(C(C)(C)O)n1 [MK1775]	inactive: 0.628

3 entries from above in a different format.
NCCC[C@](N)(C(=O)O)C(F)F (racemic) [DL-alpha-Difluoromethylornithine hydrochloride] + C=CCn1c(=O)c2cnc(Nc3ccc(N4CCN(C)CC4)cc3)nc2n1-c1cccc(C(C)(C)O)n1 [MK1775]
  Z' of S-phase gammaH2AX difference (Z-score): inactive: 1.11
CN(C)CCCN1c2ccccc2Sc2ccc(C(F)(F)F)cc21 [Triflupromazine hydrochloride] + C=CCn1c(=O)c2cnc(Nc3ccc(N4CCN(C)CC4)cc3)nc2n1-c1cccc(C(C)(C)O)n1 [MK1775]
  Z' of S-phase gammaH2AX difference (Z-score): inactive: 1.25
Nc1cc(Cl)c(NC2=NCCN2)c(Cl)c1 [p-Aminoclonidine hydrochloride] + C=CCn1c(=O)c2cnc(Nc3ccc(N4CCN(C)CC4)cc3)nc2n1-c1cccc(C(C)(C)O)n1 [MK1775]
  Z' of S-phase gammaH2AX difference (Z-score): inactive: 0.0267

(continued)

SMILES	Z' of S-phase gammaH2AX difference (Z-score)
Cc1ccc(F)c(NC(=O)Nc2ccc(-c3cccc4[nH]nc(N)c34)cc2)c1 [Linifanib (ABT-869)] + C=CCn1c(=O)c2cnc(Nc3ccc(N4CCN(C)CC4)cc3)nc2n1-c1cccc(C(C)(C)O)n1 [MK1775]	inactive: -0.947
CC(C)OC(=O)C1=CN(C(=O)c2ccc(F)c(F)c2)CC(C)(C)c2c1[nH]c1ccccc21 + C=CCn1c(=O)c2cnc(Nc3ccc(N4CCN(C)CC4)cc3)nc2n1-c1cccc(C(C)(C)O)n1 [MK1775]	inactive: 0.458
CC[C@H](CO)Nc1nc(NCc2ccccc2)c2ncn(C(C)C)c2n1 [Roscovitine] + C=CCn1c(=O)c2cnc(Nc3ccc(N4CCN(C)CC4)cc3)nc2n1-c1cccc(C(C)(C)O)n1 [MK1775]	inactive: -2.39
CC[C@H](CO)Nc1nc(NCc2ccccc2)c2ncn(C(C)C)c2n1 [Roscovitine (Seliciclib, CYC202)] + C=CCn1c(=O)c2cnc(Nc3ccc(N4CCN(C)CC4)cc3)nc2n1-c1cccc(C(C)(C)O)n1 [MK1775]	inactive: -0.743
Cc1ccc(NC(=O)c2cccc(C(C)(C)C#N)c2)cc1Nc1ccc2ncn(C)c(=O)c2c1 + C=CCn1c(=O)c2cnc(Nc3ccc(N4CCN(C)CC4)cc3)nc2n1-c1cccc(C(C)(C)O)n1 [MK1775]	inactive: 0.327
OCCN(CCO)c1nc(N2CCCCC2)c2nc(N(CCO)CCO)nc(N3CCCCC3)c2n1 [Dipyridamole] + C=CCn1c(=O)c2cnc(Nc3ccc(N4CCN(C)CC4)cc3)nc2n1-c1cccc(C(C)(C)O)n1 [MK1775]	inactive: 0.0121
C[N+](C)(C)CC(=O)O [Betaine hydrochloride] + C=CCn1c(=O)c2cnc(Nc3ccc(N4CCN(C)CC4)cc3)nc2n1-c1cccc(C(C)(C)O)n1 [MK1775]	inactive: -0.367
N[C@@H](CS(=O)O)C(=O)O [L-Cysteinesulfinic Acid] + C=CCn1c(=O)c2cnc(Nc3ccc(N4CCN(C)CC4)cc3)nc2n1-c1cccc(C(C)(C)O)n1 [MK1775]	inactive: 0.167
COC(=O)[C@H](NC(=O)c1cc(-c2ccccc2)nc2ccccc12)c1ccccc1 + C=CCn1c(=O)c2cnc(Nc3ccc(N4CCN(C)CC4)cc3)nc2n1-c1cccc(C(C)(C)O)n1 [MK1775]	inactive: -0.299
N#Cc1cc2nc(O)c(O)nc2cc1[N+](=O)[O-] [CNQX disodium] + C=CCn1c(=O)c2cnc(Nc3ccc(N4CCN(C)CC4)cc3)nc2n1-c1cccc(C(C)(C)O)n1 [MK1775]	inactive: 0.401
C[C@@H](CN1CCC(Cc2ccccc2)CC1)[C@@H](O)c1ccc(O)cc1 [Ro 25-6981 hydrochloride] + C=CCn1c(=O)c2cnc(Nc3ccc(N4CCN(C)CC4)cc3)nc2n1-c1cccc(C(C)(C)O)n1 [MK1775]	inactive: 0.495
Cc1cc(NC(=O)Nc2ccc3c(ccn3C)c2)sn1 + C=CCn1c(=O)c2cnc(Nc3ccc(N4CCN(C)CC4)cc3)nc2n1-c1cccc(C(C)(C)O)n1 [MK1775]	inactive: 1.29
Cc1ccc(=O)n(-c2ccccc2)c1 [Pirfenidone] + C=CCn1c(=O)c2cnc(Nc3ccc(N4CCN(C)CC4)cc3)nc2n1-c1cccc(C(C)(C)O)n1 [MK1775]	inactive: -0.757
O=C(Cc1ccc(Cl)c(Cl)c1)OCCN1CCCC1 [AC 915 oxalate] + C=CCn1c(=O)c2cnc(Nc3ccc(N4CCN(C)CC4)cc3)nc2n1-c1cccc(C(C)(C)O)n1 [MK1775]	inactive: -0.257
O=C(/C=C/c1ccc(O)cc1)c1ccc(O)cc1O [Isoliquiritigenin] + C=CCn1c(=O)c2cnc(Nc3ccc(N4CCN(C)CC4)cc3)nc2n1-c1cccc(C(C)(C)O)n1 [MK1775]	inactive: -0.449
N#CCNC(=O)c1ccc(-c2ccnc(Nc3ccc(N4CCOCC4)cc3)n2)cc1 + C=CCn1c(=O)c2cnc(Nc3ccc(N4CCN(C)CC4)cc3)nc2n1-c1cccc(C(C)(C)O)n1 [MK1775]	inactive: -1.14
CN(C)CCCN=c1c2ccccc2n(C)c2[nH]c(=O)n(C)c(=O)c12 + C=CCn1c(=O)c2cnc(Nc3ccc(N4CCN(C)CC4)cc3)nc2n1-c1cccc(C(C)(C)O)n1 [MK1775]	inactive: -0.175
Nc1cc(=O)[nH]c(N)n1 [2,6-Diamino-4-pyrimidinone] + C=CCn1c(=O)c2cnc(Nc3ccc(N4CCN(C)CC4)cc3)nc2n1-c1cccc(C(C)(C)O)n1 [MK1775]	inactive: 1.49
